For one molecule, binding results are on record in PMC2477742.

In this assay the target is T1, IL-11 receptor alpha chain on beta-TC3 cells (no gp-130) (mouse (endogenous in beta-TC3)) (UniProt Q64385).
T1 sequence: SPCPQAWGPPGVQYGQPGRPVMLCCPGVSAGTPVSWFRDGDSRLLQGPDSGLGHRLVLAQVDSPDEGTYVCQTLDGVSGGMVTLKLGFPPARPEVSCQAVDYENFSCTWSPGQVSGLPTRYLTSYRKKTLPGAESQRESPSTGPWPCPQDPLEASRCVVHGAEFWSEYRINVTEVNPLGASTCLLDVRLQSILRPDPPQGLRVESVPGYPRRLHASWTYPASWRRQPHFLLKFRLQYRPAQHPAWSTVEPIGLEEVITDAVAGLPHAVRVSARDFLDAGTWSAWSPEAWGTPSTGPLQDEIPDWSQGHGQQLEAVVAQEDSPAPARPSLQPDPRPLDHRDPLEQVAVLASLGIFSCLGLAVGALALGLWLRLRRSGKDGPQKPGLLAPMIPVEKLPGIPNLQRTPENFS
Description: radioligand binding; 10^6 cells in 40 ul RPMI-1640 or DME medium with 20 mM Hepes pH 7.4 and 10% FCS, overnight on ice with 1 x 10^5 cpm 125I-labelled IL-11 with or without a 100-fold excess of unlabelled IL-11; cell-associated and free ligand separated by centrifugation through FCS; only the binder purified.

These are yes or no findings as the source states them, for the method shown.

B1: 125I-labelled IL-11 (ligand, UniProt P47873 22-199)
chain: PGPPAGSPRVSSDPRADLDSAVLLTRSLLADTRQLAAQMRDKFPADGDHSLDSLPTLAMSAGTLGSLQLPGVLTRLRVDLMSYLRHVQWLRRAGGPSLKTLEPELGALQARLERLLRRLQLLMSRLALPQAAPDQPVIPLGPPASAWGSIRAAHAILGGLHLTLDWAVRGLLLLKTRL
modifications: 125I-labelled (radioiodinated)
Take B1: the binding result is “no binding (tested: 1 x 105 cpm 125I-labelled IL-11)”.
